Measurements published in article PMC12373910.

Biological target: FLAG-tagged Gnarl3 (orf92) expressed in wild E. coli (ECOR) hosts
Test: affinity purification with mass spectrometry; FLAG-tagged AG expressed in wild ECOR strains; cleared cryomilled lysates on anti-FLAG magnetic agarose beads overnight at 4 °C; eluted with 3xFLAG peptide; triplicates, enrichment against orf74 control samples

binding | Binder
binds | GalE (endogenous, wild E. coli hosts) (enzyme, UniProt P09147 1-338) MRVLVTGGSGYIGSHTCVQLLQNGHDVIILDNLCNSKRSVLPVIERLGGKHPTFVEGDIRNEALMTEILHDHAIDTVIHFAGLKAVGESVQKPLEYYDNNVNGTLRLISAMRAANVKNFIFSSSATVYGDQPKIPYVESFPTGTPQSPYGKSKLMVEQILTDLQKAQPDWSIALLRYFNPVGAHPSGDMGEDPQGIPNNLMPYIAQVAVGRRDSLAIFGNDYPTEDGTGVRDYIHVMDLADGHVVAMEKLANKPGVHIYNLGAGVGNSVLDVVNAFSKACGKPVNYHFAPRREGDLPAYWADASKADRELNWRVTRTLDEMAQDTWHWQSRHPQGYPD
binds | GalF (endogenous, wild E. coli hosts) (protein, UniProt P0AAB6 1-297) MTNLKAVIPVAGLGMHMLPATKAIPKEMLPIVDKPMIQYIVDEIVAAGIKEILLVTHASKNAVENHFDTSYELESLLEQRVKRQLLAEVQSICPPGVTIMNVRQGEPLGLGHSILCARPAIGDNPFVVVLPDVVIDDASADPLRYNLAAMIARFNETGRSQVLAKRMPGDLSEYSVIQTKEPLDREGKVSRIVEFIEKPDQPQTLDSDIMAVGRYVLSADIWPELERTQPGAWGRIQLTDAIAELAKKQSVDAMLMTGDSYDCGKKMGYMQAFVKYGLRNLKEGAKFRKGIEKLLSE
binds | GalU (endogenous, wild E. coli hosts) (enzyme, UniProt P0AEP3 1-302) MAAINTKVKKAVIPVAGLGTRMLPATKAIPKEMLPLVDKPLIQYVVNECIAAGITEIVLVTHSSKNSIENHFDTSFELEAMLEKRVKRQLLDEVQSICPPHVTIMQVRQGLAKGLGHAVLCAHPVVGDEPVAVILPDVILDEYESDLSQDNLAEMIRRFDETGHSQIMVEPVADVTAYGVVDCKGVELAPGESVPMVGVVEKPKADVAPSNLAIVGRYVLSADIWPLLAKTPPGAGDEIQLTDAIDMLIEKETVEAYHMKGKSHDCGNKLGYMQAFVEYGIRHNTLGTEFKAWLEEEMGIKK

Results are given in words; binding and its absence hold for the method and conditions named. Binding seen in cells or lysates may run through a third protein. Here binding means that the protein was enriched with, or labelled near, the bait; the list need not be complete.
